Test results: the supplement of paper PMC6078165
Values are relative to the signal before dosing, not to a vehicle control; the signal also falls without drug.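 Fibroblast labels name human fibroblasts: mostly primary ones from tissues such as uterus (C12385, HUF), lung (H6013), bone (Hs27A), adrenal (HADF) and skin (WS1), plus mammary HMF and breast cancer-associated Hs343T. The cancer cells are basal-like or mesenchymal-like triple-negative breast cancer lines. The paper calls a changed response a hit when it shifts by more than 3x the replicate standard deviation. The tissue of the other fibroblasts is not given here.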

System: MDAMB436
Test: relative JC-1 red fluorescence (viability) vs pre-drug, coculture with fibroblast (fraction); higher = more viable cancer cells
Method: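 JC-1 labelled TNBC cells cocultured 1:1 (1,500 cells each) with CellTrace Violet stained primary or stromal fibroblasts in 384-well plates in FluoroBrite medium, treated with one of 42 anticancer drugs at 0.1, 1, 10 or 100 uM. JC-1 red fluorescence (mitochondrial integrity in cancer cells only) was read by plate reader every 8 h for 72 h. Values are normalised to each well's pre-drug value. The stock of one drug was tenfold lower, so its dose labels may be too high.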

O=C(O)CCCc1ccc(N(CCCl)CCCl)cc1 [Chlorambucil]
relative JC-1 red fluorescence
Conditions | 8 h | 16 h | 24 h | 32 h | 40 h | 48 h | 56 h | 64 h | 72 h
0.1 µM, coculture fibroblast: C12385 | 0.773 | 0.722 | 0.692 | 0.614 | 0.572 | 0.554 | 0.538 | 0.531 | 0.532
0.1 µM, coculture fibroblast: H6013 | 0.793 | 0.761 | 0.74 | 0.73 | 0.71 | 0.727 | 0.695 | 0.681 | 0.64
0.1 µM, coculture fibroblast: H6019 | 0.769 | 0.715 | 0.677 | 0.6004 | 0.5457 | 0.5218 | 0.4861 | 0.4534 | 0.4288
0.1 µM, coculture fibroblast: H6076 | 0.81 | 0.759 | 0.756 | 0.72 | 0.719 | 0.704 | 0.718 | 0.7177 | 0.707
0.1 µM, coculture fibroblast: H6231 | 0.7021 | 0.685 | 0.732 | 0.665 | 0.668 | 0.644 | 0.642 | 0.637 | 0.625
0.1 µM, coculture fibroblast: HADF | 0.793 | 0.7368 | 0.6987 | 0.669 | 0.648 | 0.668 | 0.618 | 0.618 | 0.59
0.1 µM, coculture fibroblast: HCFa | 0.778 | 0.748 | 0.724 | 0.696 | 0.671 | 0.691 | 0.627 | 0.622 | 0.572
0.1 µM, coculture fibroblast: HCPF | 0.727 | 0.707 | 0.717 | 0.666 | 0.6751 | 0.66115 | 0.6557 | 0.6453 | 0.6493
0.1 µM, coculture fibroblast: HHSteC | 0.824 | 0.819 | 0.818 | 0.786 | 0.795 | 0.818 | 0.771 | 0.752 | 0.706
0.1 µM, coculture fibroblast: HMF | 0.712 | 0.677 | 0.687 | 0.66 | 0.677 | 0.655 | 0.68 | 0.668 | 0.676
0.1 µM, coculture fibroblast: HPFa | 0.829 | 0.785 | 0.773 | 0.73 | 0.726 | 0.754 | 0.687 | 0.67 | 0.606
0.1 µM, coculture fibroblast: HUF | 0.849 | 0.801 | 0.789 | 0.695 | 0.636 | 0.602 | 0.582 | 0.562 | 0.549
0.1 µM, coculture fibroblast: Hs5 | 0.737 | 0.735 | 0.751 | 0.715 | 0.74 | 0.7157 | 0.754 | 0.7376 | 0.7322
0.1 µM, coculture fibroblast: Hs27A | 0.797 | 0.7843 | 0.77957 | 0.7727 | 0.769 | 0.8369 | 0.748 | 0.741 | 0.67
0.1 µM, coculture fibroblast: Hs343T | 0.742 | 0.6979 | 0.695 | 0.665 | 0.667 | 0.645 | 0.657 | 0.652 | 0.653
0.1 µM, coculture fibroblast: WS1 | 0.769 | 0.703 | 0.672 | 0.598 | 0.566 | 0.55 | 0.536 | 0.516 | 0.505
1 µM, coculture fibroblast: C12385 | 0.807 | 0.691 | 0.632 | 0.556 | 0.497 | 0.473 | 0.443 | 0.425 | 0.415
1 µM, coculture fibroblast: H6013 | 0.823 | 0.717 | 0.673 | 0.6468 | 0.6149 | 0.616 | 0.5841 | 0.57 | 0.526
1 µM, coculture fibroblast: H6019 | 0.7416 | 0.6317 | 0.5968 | 0.5222 | 0.4697 | 0.452 | 0.43 | 0.4 | 0.378
1 µM, coculture fibroblast: H6076 | 0.782 | 0.661 | 0.633 | 0.599 | 0.567 | 0.542 | 0.544 | 0.5393 | 0.5219
1 µM, coculture fibroblast: H6231 | 0.787 | 0.697 | 0.668 | 0.623 | 0.585 | 0.555 | 0.538 | 0.51 | 0.49
1 µM, coculture fibroblast: HADF | 0.8176 | 0.703 | 0.6477 | 0.5961 | 0.552 | 0.54166 | 0.49258 | 0.476 | 0.4375
1 µM, coculture fibroblast: HCFa | 0.795 | 0.708 | 0.654 | 0.612 | 0.57 | 0.566 | 0.504 | 0.486 | 0.435
1 µM, coculture fibroblast: HCPF | 0.861 | 0.768 | 0.698 | 0.642 | 0.598 | 0.556 | 0.518 | 0.494 | 0.467
1 µM, coculture fibroblast: HHSteC | 0.8224 | 0.757 | 0.701 | 0.667 | 0.638 | 0.643 | 0.585 | 0.554 | 0.498
1 µM, coculture fibroblast: HMF | 0.7984 | 0.6923 | 0.614 | 0.577 | 0.533 | 0.501 | 0.485 | 0.47 | 0.46
1 µM, coculture fibroblast: HPFa | 0.845 | 0.785 | 0.734 | 0.679 | 0.655 | 0.652 | 0.573 | 0.534 | 0.459
1 µM, coculture fibroblast: HUF | 0.823 | 0.718 | 0.673 | 0.589 | 0.532 | 0.501 | 0.476 | 0.455 | 0.445
1 µM, coculture fibroblast: Hs5 | 0.858 | 0.779 | 0.722 | 0.663 | 0.617 | 0.568 | 0.555 | 0.518 | 0.498
1 µM, coculture fibroblast: Hs27A | 0.784 | 0.705 | 0.655 | 0.622 | 0.587 | 0.617 | 0.532 | 0.508 | 0.441
1 µM, coculture fibroblast: Hs343T | 0.8172 | 0.728 | 0.677 | 0.646 | 0.614 | 0.587 | 0.561 | 0.546 | 0.532
1 µM, coculture fibroblast: WS1 | 0.788 | 0.686 | 0.629 | 0.554 | 0.497 | 0.466 | 0.438 | 0.4057 | 0.394
10 µM, coculture fibroblast: C12385 | 0.762 | 0.707 | 0.669 | 0.582 | 0.532 | 0.505 | 0.487 | 0.472 | 0.465
10 µM, coculture fibroblast: H6013 | 0.779 | 0.736 | 0.708 | 0.693 | 0.673 | 0.694 | 0.66 | 0.646 | 0.614
10 µM, coculture fibroblast: H6019 | 0.762 | 0.708 | 0.6745 | 0.599 | 0.546 | 0.523 | 0.497 | 0.472 | 0.455
10 µM, coculture fibroblast: H6076 | 0.71116 | 0.614 | 0.564 | 0.516 | 0.487 | 0.466 | 0.461 | 0.46 | 0.456
10 µM, coculture fibroblast: H6231 | 0.68892 | 0.578 | 0.624 | 0.541 | 0.545 | 0.527 | 0.521 | 0.512 | 0.503
10 µM, coculture fibroblast: HADF | 0.7718 | 0.748 | 0.717 | 0.693 | 0.682 | 0.701 | 0.648 | 0.64 | 0.604
10 µM, coculture fibroblast: HCFa | 0.791 | 0.781 | 0.759 | 0.723 | 0.708 | 0.723 | 0.67 | 0.663 | 0.614
10 µM, coculture fibroblast: HCPF | 0.672 | 0.607 | 0.581 | 0.518 | 0.497 | 0.464 | 0.45 | 0.436 | 0.429
10 µM, coculture fibroblast: HHSteC | 0.782 | 0.7547 | 0.735 | 0.701 | 0.691 | 0.712 | 0.65 | 0.634 | 0.578
10 µM, coculture fibroblast: HMF | 0.7078 | 0.642 | 0.598 | 0.545 | 0.532 | 0.498 | 0.494 | 0.48 | 0.475
10 µM, coculture fibroblast: HPFa | 0.883 | 0.822 | 0.803 | 0.772 | 0.76 | 0.765 | 0.692 | 0.66 | 0.585
10 µM, coculture fibroblast: HUF | 0.811 | 0.719 | 0.668 | 0.59 | 0.5368 | 0.5056 | 0.483 | 0.468 | 0.467
10 µM, coculture fibroblast: Hs5 | 0.74 | 0.674 | 0.644 | 0.574 | 0.558 | 0.515 | 0.51 | 0.485 | 0.482
10 µM, coculture fibroblast: Hs27A | 0.829 | 0.757 | 0.732 | 0.699 | 0.669 | 0.715 | 0.623 | 0.601 | 0.527
10 µM, coculture fibroblast: Hs343T | 0.688 | 0.614 | 0.556 | 0.499 | 0.4758 | 0.44 | 0.442 | 0.436 | 0.445
10 µM, coculture fibroblast: WS1 | 0.771 | 0.708 | 0.669 | 0.577 | 0.532 | 0.501 | 0.479 | 0.448 | 0.429
100 µM, coculture fibroblast: C12385 | 0.8271 | 0.7316 | 0.652 | 0.576 | 0.52 | 0.49 | 0.462 | 0.429 | 0.407
100 µM, coculture fibroblast: H6013 | 0.819 | 0.70349 | 0.6372 | 0.626 | 0.593 | 0.5988 | 0.56442 | 0.5427 | 0.505
100 µM, coculture fibroblast: H6019 | 0.775 | 0.682 | 0.651 | 0.581 | 0.537 | 0.507 | 0.468 | 0.439 | 0.41
100 µM, coculture fibroblast: H6076 | 0.755 | 0.633 | 0.581 | 0.508 | 0.481 | 0.447 | 0.445 | 0.434 | 0.431
100 µM, coculture fibroblast: H6231 | 0.764 | 0.671 | 0.549 | 0.512 | 0.465 | 0.419 | 0.4 | 0.371 | 0.343
100 µM, coculture fibroblast: HADF | 0.828 | 0.737 | 0.674 | 0.635 | 0.602 | 0.599 | 0.545 | 0.515 | 0.471
100 µM, coculture fibroblast: HCFa | 0.779 | 0.689 | 0.65 | 0.613 | 0.5798 | 0.589 | 0.5321 | 0.519 | 0.4731
100 µM, coculture fibroblast: HCPF | 0.785 | 0.688 | 0.595 | 0.527 | 0.476 | 0.425 | 0.387 | 0.363 | 0.333
100 µM, coculture fibroblast: HHSteC | 0.832 | 0.741 | 0.697 | 0.6566 | 0.627 | 0.629 | 0.569 | 0.539 | 0.489
100 µM, coculture fibroblast: HMF | 0.839 | 0.728 | 0.59 | 0.532 | 0.479 | 0.436 | 0.4 | 0.372 | 0.355
100 µM, coculture fibroblast: HPFa | 0.856 | 0.837 | 0.85 | 0.81 | 0.789 | 0.786 | 0.712 | 0.686 | 0.612
100 µM, coculture fibroblast: HUF | 0.8406 | 0.7135 | 0.678 | 0.6 | 0.549 | 0.514 | 0.487 | 0.462 | 0.449
100 µM, coculture fibroblast: Hs5 | 0.7776 | 0.692 | 0.607 | 0.532 | 0.5 | 0.455 | 0.442 | 0.413 | 0.398
100 µM, coculture fibroblast: Hs27A | 0.7977 | 0.7144 | 0.667 | 0.6398 | 0.616 | 0.662 | 0.601 | 0.592 | 0.538
100 µM, coculture fibroblast: Hs343T | 0.7506 | 0.636 | 0.528 | 0.465 | 0.434 | 0.4 | 0.377 | 0.366 | 0.364
100 µM, coculture fibroblast: WS1 | 0.821 | 0.742 | 0.692 | 0.621 | 0.573 | 0.55 | 0.524 | 0.4855 | 0.469
